From ChEMBL document CHEMBL3988442, “University of Dundee, Small-Polar-MMV Screening Library” (2021).

By UniProt entry, the sequences of proteins in these tests, tags left out.
UniProt E9BF75, entry or part of it: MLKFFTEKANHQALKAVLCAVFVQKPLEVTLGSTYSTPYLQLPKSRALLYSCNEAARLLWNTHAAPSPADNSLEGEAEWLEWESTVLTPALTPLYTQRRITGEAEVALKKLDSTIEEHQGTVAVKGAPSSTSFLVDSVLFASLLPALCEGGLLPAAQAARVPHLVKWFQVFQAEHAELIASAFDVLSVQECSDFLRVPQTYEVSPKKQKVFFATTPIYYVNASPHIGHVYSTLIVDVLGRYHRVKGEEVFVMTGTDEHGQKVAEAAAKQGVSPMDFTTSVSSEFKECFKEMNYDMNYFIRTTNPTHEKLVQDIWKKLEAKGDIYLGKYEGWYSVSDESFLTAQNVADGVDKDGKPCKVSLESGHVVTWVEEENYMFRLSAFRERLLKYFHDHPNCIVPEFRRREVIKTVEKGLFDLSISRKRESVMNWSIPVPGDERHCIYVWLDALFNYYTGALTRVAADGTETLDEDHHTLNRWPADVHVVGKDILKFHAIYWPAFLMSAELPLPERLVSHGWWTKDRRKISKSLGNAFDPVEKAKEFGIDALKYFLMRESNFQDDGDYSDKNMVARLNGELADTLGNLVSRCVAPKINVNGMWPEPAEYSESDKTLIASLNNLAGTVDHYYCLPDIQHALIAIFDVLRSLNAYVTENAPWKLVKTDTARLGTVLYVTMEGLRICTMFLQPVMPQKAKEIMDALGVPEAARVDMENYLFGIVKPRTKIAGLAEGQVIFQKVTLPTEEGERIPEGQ

A: 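Assay on Mycobacterium tuberculosis, filed only as a heat shock assay from Cornell; the read-out is not stated. The concentration is filed as 10 mM, unlikely as a test dose, so the dose is not known. Direction is inferred from retests: higher values go with stronger inhibition. About 69,000 compounds were tested under these conditions; 1.4% (about 930) showed 50% or more at least once.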
B: 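Methionyl-tRNA synthetase (putative), Leishmania donovani (UniProt E9BF75). Primary screen of methionyl-tRNA synthetase; the read-out is not stated. The test concentration is not given. The values are filed as inhibition. Size under these conditions: about 68,000 compounds, about 24 of them at 50% or above in at least one test.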
C: 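Whole-cell assay for inhibitors of Mycobacterium tuberculosis growth, labelled Cornell in the record; the read-out is not stated. The concentration is filed as 10 mM, unlikely as a test dose, so the dose is not known. Higher means stronger inhibition (inferred from two other growth screens of the library). About 53,000 compounds were tested under these conditions; 1.7% (about 900) showed 50% or more at least once.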

Results are percentages, as filed. The controls that fix the scale are not given in the record; negative values are as filed. The compounds are a random part of those screened. A dash means the value is not listed here; it may have been measured.

{"smiles": "CN(C)CCN1C(=O)C[C@@H]2[C@@H]1CCN2S(=O)(=O)c1ccccc1", "B": 10.56}
{"smiles": "Cc1cc(C)nc(N2CCC(c3cccc(CCC(=O)O)n3)CC2)n1", "A": -12.81, "B": 14.15, "C": 45.87}
{"smiles": "COc1cccc(CN(Cc2ncc[nH]2)Cc2ccco2)c1.O=C(O)CC(O)(CC(=O)O)C(=O)O", "A": -6.241, "C": 34.2}
{"smiles": "CC(C)C(=O)N1CCCC2(CCCN2CC2CCCC2)C1.O=C(O)C(F)(F)F", "stereo": "stereo unspecified", "A": -9.75, "C": -1.966}
{"smiles": "NC(=O)CCCNC(=O)c1cc(Br)c2c(c1)OCCO2", "A": -19.14, "B": 14.08, "C": 4.773}
{"smiles": "[H][C@@]12CCCC[C@]1(O)CCN(C(=O)OC)[C@H]2c1ccc2c(c1)OCO2", "A": -4.009, "C": 7.04}
{"smiles": "CCc1ccc(C(=O)N2CCN(Cc3ccc(F)cc3)CC2)s1", "A": 15.47, "B": 20.5, "C": 18.91}
{"smiles": "CC(C)C[C@H](NC(=O)N1CCC(Cc2ccccc2)CC1)C(=O)O", "A": -18.26, "B": 2.266, "C": 5.085}
{"smiles": "O=C(NC1CC1)c1cn(C2CCN(c3cc(C4CC4)ncn3)CC2)nn1", "A": 61.79, "B": 3.819, "C": -6.786}
{"smiles": "O=C(NCCCn1cccn1)N1CCCC1c1ccsc1", "stereo": "stereo unspecified", "A": 9.542, "B": 15.92, "C": -0.5719}
{"smiles": "CC(c1c(F)cccc1F)N1CCN(Cc2nccn2C)CC1", "stereo": "stereo unspecified", "A": -27.57, "B": 9.639}
{"smiles": "O=C(Cc1ccc2c(c1)CCO2)N1CCCC1c1noc(C2CC2)n1", "stereo": "stereo unspecified", "A": -22, "B": 13.11, "C": -28.16}
{"smiles": "[H][C@@]12CN(C(=O)N(C)C)C[C@]1([H])C(=O)NC21CCN(C(=O)COC)CC1", "A": -3.066}
{"smiles": "CS(=O)(=O)c1ncc(CN2CCN3CCCC3C2)n1CC1CCCCC1", "stereo": "stereo unspecified", "A": -7.088, "B": 12.36, "C": 4.711}
{"smiles": "CCN(CC)S(=O)(=O)CCNC(=O)c1cc2cccc(F)c2o1", "A": -15.55, "B": 8.242, "C": 14.51}
{"smiles": "CN(C)S(=O)(=O)CCCN1CCCC1c1noc(C2CC2)n1", "stereo": "stereo unspecified", "A": -3.674, "B": 14.93}
{"smiles": "CCN1Cc2cc(OC)ccc2N(CC(C)(C)O)CCC1=O", "A": -11.62, "B": 6.216, "C": -17.4}
{"smiles": "CCCc1nnc(NC(C)c2ccc(F)cc2)o1", "stereo": "stereo unspecified", "A": 24.93, "B": 18.56, "C": 25.2}
{"smiles": "Cc1cnn(CC2CN(CCN3CCCC3=O)CCO2)c1", "stereo": "stereo unspecified", "A": -7.055, "B": 9.294, "C": 9.791}
{"smiles": "CC(C)n1[nH]c(=O)c2c1NC(=O)CC2c1cccc(OC(F)F)c1", "stereo": "stereo unspecified", "A": -7.871, "B": 5.926, "C": -4.032}
{"smiles": "Cc1c(O)oc(-c2ccc(Br)cc2)nc1=O", "A": -37.98, "B": 3.147}
{"smiles": "CC(C)C[C@@H]1N[C@H](C(=O)NCC2CC2)Cc2c[nH]c3cccc1c23", "A": 2.491, "B": 12.54, "C": 40.17}
{"smiles": "Cc1cc(C#N)ccc1S(=O)(=O)NCc1cnc(N(C)C)n1C", "A": -18.07, "B": 24.73, "C": 11.86}
{"smiles": "Cc1cc(C[C@@H]2CCC[C@H]2NCc2cc(F)ccc2F)on1", "B": 4}
{"smiles": "CCC(=O)N1CCN(C(=O)NCCOc2ccc3c(c2)CCC3)CC1", "A": 7.706, "B": 13.22}
{"smiles": "O=C(CCNC(=O)c1ccoc1)Nc1ccc(F)cc1F", "A": 19.55, "B": 10.65, "C": -37.53}
{"smiles": "Cc1nn(C)c(C)c1C1CCCN1CC(=O)NC(C1CC1)C1CC1", "stereo": "stereo unspecified", "A": 9.704, "B": 8.497, "C": 0.8874}
{"smiles": "O=C(c1cc(C2CC2)on1)N1C[C@@H]2COC[C@]2(COc2cccnc2)C1", "B": 18.09}
{"smiles": "CCNC(=O)[C@@H]1C[C@H](N)CN1C(=O)Cc1cc(C)ccc1C", "A": -9.707, "B": 13.41, "C": 7.986}
{"smiles": "O=C(NC[C@H]1Cn2c(-c3ccccc3)cnc2CO1)C1CC1", "A": -38.11, "B": 4.407, "C": 3.359}
{"smiles": "COCC(C)NC(=O)CCSc1ccc(F)cc1", "stereo": "stereo unspecified", "A": -14.29, "B": 2.375, "C": -22.42}
{"smiles": "Cn1nc(Cn2ccnc2)c2c1CN(c1ncccn1)C2.O=C(O)C(F)(F)F", "A": -33.23, "C": 9.591}
{"smiles": "COc1cccc(CNCc2ccc(F)cc2Cl)c1O", "A": 10.28, "B": 14.87, "C": 52.17}
{"smiles": "O=C(NCCOCC(F)(F)F)c1ccc(-c2ccco2)[nH]c1=O", "A": 19, "B": 15.03, "C": 8.976}
{"smiles": "COCc1cnc2n1CCN(S(=O)(=O)N(C)C)C2C", "stereo": "stereo unspecified", "A": -16.81, "B": 6.884, "C": 11.58}
{"smiles": "Cc1nc(C)n(CC2CCCN2CC(=O)Nc2ccncc2)n1", "stereo": "stereo unspecified", "A": 5.618, "B": 10.36, "C": 20.03}
{"smiles": "CCc1ccc(CN2C[C@@H](C(=O)O)[C@H](c3ccccc3OC)C2)o1", "A": -2.281, "B": 15.36, "C": 5.989}
{"smiles": "COCc1cn(CC2CCN(Cc3cc(C)[nH]n3)CC2)nn1", "A": -11.99, "B": 5.483}

4 of the entries, repeated:

SMILES	A	B	C
O=C(NC[C@H]1Cn2c(-c3ccccc3)cnc2CO1)C1CC1	-38.11	4.407	3.359
Cc1c(O)oc(-c2ccc(Br)cc2)nc1=O	-37.98	3.147	-
Cc1cc(C)nc(N2CCC(c3cccc(CCC(=O)O)n3)CC2)n1	-12.81	14.15	45.87
CCN(CC)S(=O)(=O)CCNC(=O)c1cc2cccc(F)c2o1	-15.55	8.242	14.51